Reference: article PMC8079706
No constants are given. Whether binding was seen depends on the method and setting. In cells and extracts the contact can be indirect. Some results given as binding are weak or reduced against the parent protein; the word gives no strength.

The chains behind the UniProt entries cited, without tags or fusion partners. Where a name states a change or a piece, a line headed by the entry shows the natural chain unless it says otherwise. A line that says so, or that is headed by a name, gives the form on record, which may keep a tag or linker. Residues count along the entry.
UniProt Q14191: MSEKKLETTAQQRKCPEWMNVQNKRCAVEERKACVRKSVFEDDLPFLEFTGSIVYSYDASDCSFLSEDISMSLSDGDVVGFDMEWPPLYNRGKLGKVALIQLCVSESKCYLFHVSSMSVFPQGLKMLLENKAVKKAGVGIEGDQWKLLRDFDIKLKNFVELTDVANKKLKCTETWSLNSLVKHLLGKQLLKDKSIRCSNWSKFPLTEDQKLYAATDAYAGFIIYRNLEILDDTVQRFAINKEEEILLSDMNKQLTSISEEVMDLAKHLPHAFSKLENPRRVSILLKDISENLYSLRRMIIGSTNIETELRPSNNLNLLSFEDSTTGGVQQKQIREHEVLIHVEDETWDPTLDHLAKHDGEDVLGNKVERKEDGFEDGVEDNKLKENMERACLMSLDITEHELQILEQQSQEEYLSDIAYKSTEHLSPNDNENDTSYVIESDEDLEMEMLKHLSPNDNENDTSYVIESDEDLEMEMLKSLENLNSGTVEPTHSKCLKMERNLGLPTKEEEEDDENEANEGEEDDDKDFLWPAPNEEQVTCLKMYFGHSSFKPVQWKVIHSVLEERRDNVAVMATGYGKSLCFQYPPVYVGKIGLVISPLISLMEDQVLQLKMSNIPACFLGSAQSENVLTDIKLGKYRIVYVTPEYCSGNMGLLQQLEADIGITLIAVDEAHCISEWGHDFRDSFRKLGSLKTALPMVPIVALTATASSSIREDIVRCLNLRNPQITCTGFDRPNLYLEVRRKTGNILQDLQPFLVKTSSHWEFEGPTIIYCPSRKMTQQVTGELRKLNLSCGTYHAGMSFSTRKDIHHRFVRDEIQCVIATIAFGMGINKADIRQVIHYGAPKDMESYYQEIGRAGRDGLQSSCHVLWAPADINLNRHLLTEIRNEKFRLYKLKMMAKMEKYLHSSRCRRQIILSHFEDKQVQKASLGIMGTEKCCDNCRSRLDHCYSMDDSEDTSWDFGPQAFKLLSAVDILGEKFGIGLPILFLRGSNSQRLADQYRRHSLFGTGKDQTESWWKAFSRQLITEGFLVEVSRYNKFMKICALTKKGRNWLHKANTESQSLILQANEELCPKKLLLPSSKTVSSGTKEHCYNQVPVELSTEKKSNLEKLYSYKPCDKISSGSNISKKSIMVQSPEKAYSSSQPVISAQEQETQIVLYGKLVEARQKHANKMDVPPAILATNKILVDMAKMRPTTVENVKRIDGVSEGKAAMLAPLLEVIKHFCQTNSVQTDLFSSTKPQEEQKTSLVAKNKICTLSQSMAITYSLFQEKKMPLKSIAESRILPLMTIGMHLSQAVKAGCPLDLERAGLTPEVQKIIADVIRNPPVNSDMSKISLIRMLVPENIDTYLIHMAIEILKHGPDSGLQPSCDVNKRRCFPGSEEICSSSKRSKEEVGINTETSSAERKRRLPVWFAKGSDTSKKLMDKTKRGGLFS
GST-tagged WRN-R2 recombinant protein: residues 424-476 of Q14191
wild-type lamin A (endogenous) (P02545, residues 1-646): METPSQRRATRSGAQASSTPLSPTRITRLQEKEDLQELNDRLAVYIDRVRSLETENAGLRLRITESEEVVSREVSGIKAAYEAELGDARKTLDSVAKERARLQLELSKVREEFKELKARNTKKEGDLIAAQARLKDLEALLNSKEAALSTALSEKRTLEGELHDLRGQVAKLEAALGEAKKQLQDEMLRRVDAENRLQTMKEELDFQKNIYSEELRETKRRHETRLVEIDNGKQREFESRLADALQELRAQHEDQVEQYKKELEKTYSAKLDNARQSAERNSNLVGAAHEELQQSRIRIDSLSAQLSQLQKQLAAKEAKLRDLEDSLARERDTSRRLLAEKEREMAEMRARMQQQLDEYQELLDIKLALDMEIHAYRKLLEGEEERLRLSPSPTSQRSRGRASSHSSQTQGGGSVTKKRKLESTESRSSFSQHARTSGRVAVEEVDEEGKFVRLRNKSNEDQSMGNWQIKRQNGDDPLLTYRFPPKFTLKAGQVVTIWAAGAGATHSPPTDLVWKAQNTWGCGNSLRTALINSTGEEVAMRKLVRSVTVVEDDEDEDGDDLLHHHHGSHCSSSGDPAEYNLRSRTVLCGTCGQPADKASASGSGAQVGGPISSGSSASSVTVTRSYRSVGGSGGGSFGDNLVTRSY
progerin (endogenous) (P02545-6, form named): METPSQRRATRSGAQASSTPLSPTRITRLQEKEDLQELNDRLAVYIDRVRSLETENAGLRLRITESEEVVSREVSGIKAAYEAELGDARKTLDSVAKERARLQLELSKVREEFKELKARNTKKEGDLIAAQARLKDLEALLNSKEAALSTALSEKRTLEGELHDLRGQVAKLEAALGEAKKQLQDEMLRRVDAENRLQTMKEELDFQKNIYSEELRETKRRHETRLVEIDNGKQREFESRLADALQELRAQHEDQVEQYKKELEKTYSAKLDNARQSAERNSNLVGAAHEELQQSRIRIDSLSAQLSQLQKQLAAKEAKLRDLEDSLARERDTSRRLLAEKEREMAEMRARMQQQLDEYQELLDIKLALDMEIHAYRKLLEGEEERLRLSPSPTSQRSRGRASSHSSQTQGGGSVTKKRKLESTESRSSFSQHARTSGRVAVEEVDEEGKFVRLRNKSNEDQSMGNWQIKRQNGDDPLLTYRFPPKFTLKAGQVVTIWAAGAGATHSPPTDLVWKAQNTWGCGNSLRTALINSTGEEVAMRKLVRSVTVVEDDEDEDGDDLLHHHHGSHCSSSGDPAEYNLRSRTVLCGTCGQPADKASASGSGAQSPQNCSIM

What was measured:
[1] = target: GST-tagged WRN-R2 recombinant protein (human) (UniProt Q14191); assay: pull-down; bead-conjugated GST-WRN-R1 or GST-WRN-R2 incubated with GFP-lamin A- or GFP-progerin-transfected HEK293 cell lysate for 1 h at room temperature, washed once with PBS; western blot with anti-GFP and anti-GST; only the target purified
[2] = target: WRN protein (endogenous) (human (endogenous in whole-cell lysates; all cell lines of the paper are human)) (UniProt Q14191); assay: co-IP; endogenous IP: whole-cell lysates with anti-WRN antibody at 4 °C for 2 h, protein A/G agarose beads at 4 °C for 1 h, washed with RIPA buffer, western blot

Substance | binding [1] | binding [2]
GFP-fused progerin (from UniProt P02545-6 1-614) | binds | –
progerin (endogenous) (from UniProt P02545-6 1-614) | – | binds
wild-type lamin A (endogenous) (from UniProt P02545 1-646) | – | binds
